Reference: PubChem BioAssay AID504764 (Drosophila RNAi Screening Center, 2011)
In all, the deposit lists about 22,000 reagents; shown is a random part of those that have a named target and a result. In the full data, 403 (1.9%) are marked active. 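Unnormalised raw counts per well; ratio z-scores behind the hit calls and whether each hit raises or lowers signal are not deposited.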 A number with no mark means an inactive call. A plus sign joins genes that one reagent is predicted to hit. The record does not give: the amount of reagent.

Screen: 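Genes whose knock-down alters Notch-dependent transcription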 (primary screen)
System: Drosophila Kc167 cells
Reagents: long dsRNA against Drosophila genes
Duration: about 5 days (4 days dsRNA, then 24 h after transfection)
Challenge: transfection of constitutively active membrane-tethered Notch lacking the extracellular domain, read 24 h later
Measurement: 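Firefly luciferase from an E(spl)m3 reporter with active Notch, plus control-promoter and uninduced reporter wells for normalisation; unnormalised counts, duplicate wells a and b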
Scale: induced reporter light, run 1, well a and induced reporter light, run 1, well b: higher = more light from the Notch target reporter with active Notch; control promoter light, run 1, well a and control promoter light, run 1, well b: higher = more light from the viral control promoter (cell number, transfection, viability); uninduced reporter light, run 1, well a: higher = more light from the Notch target reporter without active Notch
Hit rule: 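Wells with low control signal or poorly matching duplicates excluded; duplicates averaged; per source plate, z beyond ±2 for induced/control log2 ratio or beyond ±1.8 for induced/uninduced marks a hit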
Meaning of the calls: active = modifier hit (raised or lowered Notch signal); inactive = not a hit

With trr (GeneID 31149), what does the deposit list?
induced reporter light, run 1, well a: 56425; induced reporter light, run 1, well b: 44325; control promoter light, run 1, well a: 51925; control promoter light, run 1, well b: 48040; uninduced reporter light, run 1, well a: 8405

With CG6403 (GeneID 43220), what was measured?
induced reporter light, run 1, well a: 1.47e5; induced reporter light, run 1, well b: 1.22e5; control promoter light, run 1, well a: 1.98e5; control promoter light, run 1, well b: 2.07e5; uninduced reporter light, run 1, well a: 13780

What is on record for CG5757 (GeneID 37062)?
induced reporter light, run 1, well a: 85955; induced reporter light, run 1, well b: 92505; control promoter light, run 1, well a: 1.46e5; control promoter light, run 1, well b: 1.52e5; uninduced reporter light, run 1, well a: 6070

What did the screen give for TwdlP (GeneID 43201)?
induced reporter light, run 1, well a: 1.90e5; induced reporter light, run 1, well b: 1.72e5; control promoter light, run 1, well a: 2.56e5; control promoter light, run 1, well b: 2.18e5; uninduced reporter light, run 1, well a: 15645

How did the screen score CG11018 (GeneID 37259)?
induced reporter light, run 1, well a: 1.15e5; induced reporter light, run 1, well b: 1.27e5; control promoter light, run 1, well a: 2.42e5; control promoter light, run 1, well b: 2.49e5; uninduced reporter light, run 1, well a: 9970

For CG13694 (GeneID 33169), what does the deposit list?
induced reporter light, run 1, well a: 94570; induced reporter light, run 1, well b: 94715; control promoter light, run 1, well a: 84050; control promoter light, run 1, well b: 47070; uninduced reporter light, run 1, well a: 8032

What is on record for DEF8 (GeneID 39381)?
induced reporter light, run 1, well a: 1.33e5; induced reporter light, run 1, well b: 1.21e5; control promoter light, run 1, well a: 84395; control promoter light, run 1, well b: 56595; uninduced reporter light, run 1, well a: 11750

Which result is listed for spn-A (GeneID 43577)?
induced reporter light, run 1, well a: 1.14e5; induced reporter light, run 1, well b: 1.01e5; control promoter light, run 1, well a: 1.75e5; control promoter light, run 1, well b: 1.74e5; uninduced reporter light, run 1, well a: 8795

What is on record for eIF5 (GeneID 32566)?
induced reporter light, run 1, well a: 41175 (active); induced reporter light, run 1, well b: 43355; control promoter light, run 1, well a: 60655; control promoter light, run 1, well b: 55315; uninduced reporter light, run 1, well a: 2475

What is on record for alien + CG17906?
induced reporter light, run 1, well a: 1.30e5; induced reporter light, run 1, well b: 1.58e5; control promoter light, run 1, well a: 70650; control promoter light, run 1, well b: 97315; uninduced reporter light, run 1, well a: 18960

For Cpr62Ba (GeneID 38239), how do the results read?
induced reporter light, run 1, well a: 1.12e5; induced reporter light, run 1, well b: 1.25e5; control promoter light, run 1, well a: 1.83e5; control promoter light, run 1, well b: 1.63e5; uninduced reporter light, run 1, well a: 9520

Which result is listed for CG1582 (GeneID 32021)?
induced reporter light, run 1, well a: 2.30e5; induced reporter light, run 1, well b: 2.69e5; control promoter light, run 1, well a: 3.67e5; control promoter light, run 1, well b: 3.18e5; uninduced reporter light, run 1, well a: 18740

With CG12104 (GeneID 38187), what does the deposit list?
induced reporter light, run 1, well a: 74795; induced reporter light, run 1, well b: 87030; control promoter light, run 1, well a: 1.15e5; control promoter light, run 1, well b: 1.43e5; uninduced reporter light, run 1, well a: 7080

For Cp7Fb (GeneID 31785), what does the deposit list?
induced reporter light, run 1, well a: 1.44e5; induced reporter light, run 1, well b: 1.67e5; control promoter light, run 1, well a: 2.65e5; control promoter light, run 1, well b: 2.81e5; uninduced reporter light, run 1, well a: 12065

What is on record for CG33465 (GeneID 3885587)?
induced reporter light, run 1, well a: 1.80e5; induced reporter light, run 1, well b: 1.95e5; control promoter light, run 1, well a: 2.48e5; control promoter light, run 1, well b: 2.42e5; uninduced reporter light, run 1, well a: 18670

Which result is listed for FucTB (GeneID 34260)?
induced reporter light, run 1, well a: 1.09e5; induced reporter light, run 1, well b: 1.65e5; control promoter light, run 1, well a: 78725; control promoter light, run 1, well b: 86380; uninduced reporter light, run 1, well a: 19585

With CG33769 (GeneID 3772499), what does the deposit list?
induced reporter light, run 1, well a: 1.44e5; induced reporter light, run 1, well b: 1.70e5; control promoter light, run 1, well a: 1.76e5; control promoter light, run 1, well b: 1.41e5; uninduced reporter light, run 1, well a: 12980

Which result is listed for S-Lap4 (GeneID 326188)?
induced reporter light, run 1, well a: 2.13e5; induced reporter light, run 1, well b: 1.39e5; control promoter light, run 1, well a: 2.43e5; control promoter light, run 1, well b: 2.16e5; uninduced reporter light, run 1, well a: 8900

Targets above whose gene name begins with S or s:
spn-A (GeneID 43577) | induced reporter light, run 1, well a = 1.14e5; induced reporter light, run 1, well b = 1.01e5; control promoter light, run 1, well a = 1.75e5; control promoter light, run 1, well b = 1.74e5; uninduced reporter light, run 1, well a = 8795
S-Lap4 (GeneID 326188) | induced reporter light, run 1, well a = 2.13e5; induced reporter light, run 1, well b = 1.39e5; control promoter light, run 1, well a = 2.43e5; control promoter light, run 1, well b = 2.16e5; uninduced reporter light, run 1, well a = 8900
